Test system: recBCD enzyme
Test: Dye displacement fluorometric helicase assay (DNA unwinding followed by dye fluorescence)
Assay type: biochemical, E. coli
Details: 250 nM DAPI; for Apparent binding stoichiometry of recBCD enzyme: 100 nM H33258, 300 nM TO
Method: Fluorometric helicase assay: The standard reaction buffer consisted of 25 mM Tris-acetate (pH 7.5), 1 mM Mg(OAc)2, and 1 mM DTT. When SSB protein was included, it was present at a 3-fold molar excess, assuming a site size of 15 nucleotides/monomer under stoichiometric conditions. This corresponds to a protein concentration which is 20% of the DNA (nucleotide) concentration. The DNA substrate was BamHI-digested pBR322 DNA, at a concentration of 10 uM nucleotide (2.1 nM ends).
The reaction (350 ul total volume) contained standard buffer, linear pBR322 DNA, and the indicated concentration of recBCD enzyme. […] The fluorescence signal due to these components was zeroed out. The fluorophore (either SSB protein or dye) was then added, and the reaction was allowed to equilibrate to the indicated temperature. Unwinding was initiated by the addition of ATP to 3 mM final concentration. […] For SSB protein fluorescence measurements, the value for 100% unwinding was calculated as described previously (28, 41). For dye fluorescence experiments, the value for complete unwinding was obtained by subtracting the fluorescence in the presence of an equimolar amount of ssDNA (i.e., heat-denatured pBR322) (FssDNA) from the fluorescence at the start of the reaction (FdsDNA). The difference in these values (FdsDNA -FssDNA) was taken to be the maximum fluorescence change possible if all of the DNA molecules were fully unwound (Fexp). The observed fluorescence change (Fobs) was divided by this differ ence to obtain the extent of unwinding. Initial rates were then calculated as described previously (28).
Fluorescence measurements were carried out on a Shimadzu RF5000U spectrofluorophotometer. When the intrinsic fluorescence of SSB protein was measured, the excitation and emission wavelengths were set at 290 and 340 nm, respectively. The excitation and emission wavelengths for the various dyes were determined experimentally in the presence of dsDNA. For AO, these values were 487 and 510 nm; for DAPI, 345 and 467 nm; for EB, 546 and 590 nm; for EHD, 552 and 596 nm; for H33258, 344 and 487 nm; and for TO, 504 and 528 nm. When SSB protein fluorescence was monitored, the band widths were 1.5 and 10 nm for the excitation and emission slits, respectively; for all of the dye fluorescence experiments, these values were 5 and 10 nm, respectively.
To determine whether the presence of dyes affected the observed rate of unwinding, the reaction (including SSB protein) was performed at several concentrations of DAPI, H33258, and TO. The reactions were performed at 20° C. in standard buffer with 10 uM nucleotide (2.1 nM ends) linear pBR322 DNA, 2 uM SSB protein, 0.5 nM total (0.17 nM functional) recBCD enzyme, and the indicated concentration of dye. Unwinding was initiated by adding ATP to a final concentration of 3 mM. […] For each dye (DAPI (.circle-solid.), H33258 (o), or TO (.tangle-solidup.), the initial rate of unwinding was determined as described in the Experimental Procedures and is plotted in panel B as a function of dye concentration. Due to the lag behavior illustrated in panel A, the data at concentrations ≤100 nM are considered unreliable, as indicated by shading this portion of the graph.
In FIG. 4A, raw data from an experiment in which recBCD enzyme concentration was varied at a given concentration of TO are shown; SSB protein was included to allow comparison to previous results. From results such as these, using either DAPI, H33258, or TO, the data in FIG. 4B were generated. Unwinding was performed as in FIG. 3, except that the concentration of recBCD enzyme was varied, and a constant concentration of fluorophore (250 nM for DAPI; 100 nM for H33258; and 300 nM for TO) was used. In panel A, a portion of the raw data obtained with TO are shown. The observed rates of unwinding derived from such experiments are shown in panel B. DAPI, .circle-solid.; H33258, o; TO, .tangle-solidup.. […]

[1] = with SSB protein, 20° C., SSB assay gives 2.9±0.2

CN1CCN(c2ccc3[nH]c(-c4ccc5[nH]c(-c6ccc(O)cc6)nc5c4)nc3c2)CC1 [H33258, Hoechst 33258]
Apparent binding stoichiometry of recBCD enzyme (SSB protein omitted): 2.8±0.3 molecules/end
Apparent binding stoichiometry of recBCD enzyme [1]: 3.3±0.3 molecules/end

N=C(N)c1ccc(-c2cc3ccc(C(=N)N)cc3[nH]2)cc1
Apparent binding stoichiometry of recBCD enzyme (SSB protein omitted): 3.5±0.1 molecules/end
recBCD protein concentration at which saturation is achieved (with SSB protein, 2.1 nM DNA ends): 7.1 nM
Apparent binding stoichiometry of recBCD enzyme [1]: 3.4±0.3 molecules/end

CN1C(=Cc2cc[n+](C)c3ccccc23)Sc2ccccc21 [TO, thiazole orange]
Apparent binding stoichiometry of recBCD enzyme (SSB protein omitted): 2.7±0.2 molecules/end
Apparent binding stoichiometry of recBCD enzyme [1]: 3.2±0.2 molecules/end

— patent publication US5747247A, “Spectroscopic helicase assay” (The Regents of The University of California, priority 1994, dated 1998)
